PubChem BioAssay AID1224828 | NIAID | 2016
Here is a random part of about 17,000 deposited reagents. In the full data, 762 (4.5%) are marked active. 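Active calls include both raised and lowered p65 entry, mostly lowered; wells with fewer than 50 cells lack a z-score.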 The raw values are shown without normalisation.

Test: 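Regulators linking TLR4 signalling to p65 nuclear translocation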 (primary screen)
Cell system: mouse RAW264.7 G9 macrophage reporter cells (GFP-p65, Tnf promoter-mCherry)
Knock-down reagent: siRNA pool against mouse genes, 100 nM
Duration: 2 days siRNA transfection, then 40 min LPS before fixation
Challenge: LPS (Salmonella minnesota R595) at 10 ng/ml
Read-out: 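Microscopy ratio of nuclear to perinuclear-ring GFP-p65 signal, scaled to the plate median; gene score is the average of two replicate robust z-scores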
Reading the numbers: p65 translocation robust z-score: higher = more nuclear NF-kappaB p65 after LPS than the plate median; nuclear/cytoplasmic p65 ratio: higher = more nuclear NF-kappaB p65
Rule for the call: 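Called active when z exceeds 3.3 or falls under -1.56 (median of Tlr4 controls), giving activity score of at least 50; no calls for control wells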
Calls: active = hit (p65 shift raised or lowered); inactive = no clear change

Target gene | PubChem SID | p65 translocation robust z-score | nuclear/cytoplasmic p65 ratio, rep 1 | nuclear/cytoplasmic p65 ratio, rep 2 | low cell count flag | activity call
Cacna1s | SID315465712 | -0.84 | 1.44 | 1.54 | enough cells to score | inactive
Iqcf3 | SID315473479 | -1.12 | 1.25 | 1.18 | enough cells to score | inactive
Or5bh3 | SID315480070 | 1.74 | 1.85 | 1.67 | enough cells to score | inactive
G6pdx | SID315466787 | -0.08 | 1.35 | 1.43 | enough cells to score | inactive
Amz1 | SID315478935 | 0.08 | 1.49 | 1.5 | enough cells to score | inactive
Cyp1a2 | SID315466217 | -0.79 | 1.41 | 1.24 | enough cells to score | inactive
LTO1 | SID315474505 | 1.13 | 1.64 | 1.33 | enough cells to score | inactive
Or5k3 | SID315480608 | -1.77 | 1.34 | 1.18 | enough cells to score | active
Tet3 | SID315477453 | -0.87 | 1.37 | 1.79 | enough cells to score | inactive
Slc30a6 | SID315477632 | – | 0 | 1.26 | fewer than 50 cells per well; well left out of scoring | inactive
Or4k15 | SID315480007 | 0.46 | 1.59 | 1.32 | enough cells to score | inactive
L3hypdh | SID315472905 | 1.17 | 1.55 | 1.41 | enough cells to score | inactive
Chmp1b | SID315472811 | -0.12 | 1.38 | 1.36 | enough cells to score | inactive
Mc5r | SID315467857 | -0.05 | 1.5 | 1.5 | enough cells to score | inactive
Ucn3 | SID315475817 | – | 1.59 | 1.37 | fewer than 50 cells per well; well left out of scoring | inactive
Ceacam13 | SID315473898 | 0.4 | 1.73 | 1.76 | enough cells to score | inactive
Frat1 | SID315466746 | – | 1.4 | 1.29 | fewer than 50 cells per well; well left out of scoring | inactive
Abcb10 | SID315471395 | -2.11 | 1.26 | 1.39 | enough cells to score | active
Ift57 | SID315474802 | -0.88 | 1.43 | 1.18 | enough cells to score | inactive
Nr3c2 | SID315476929 | 0.61 | 1.51 | 1.51 | enough cells to score | inactive
Ptgfrn | SID315468777 | -0.02 | 1.35 | 1.23 | enough cells to score | inactive
Ddx39b | SID315471107 | -0.46 | 1.53 | 1.74 | enough cells to score | inactive
Fbxw19 | SID315479279 | -0.93 | 1.4 | 1.19 | enough cells to score | inactive
Sspn | SID315467679 | -0.37 | 1.52 | 1.48 | enough cells to score | inactive
Hspd1 | SID315467325 | -0.25 | 1.26 | 1.36 | enough cells to score | inactive
4932435O22Rik | SID315481172 | -0.31 | 1.25 | 1.27 | enough cells to score | inactive
Dlx3 | SID315466338 | -2.12 | 1.2 | 1.18 | enough cells to score | active
Phyhipl | SID315474154 | -0.34 | 1.38 | 1.21 | enough cells to score | inactive
Plpp5 | SID315474374 | -0.44 | 1.48 | 1.61 | enough cells to score | inactive
Ppic | SID315468655 | 0.66 | 1.4 | 1.29 | enough cells to score | inactive
B2m | SID315465588 | -1.07 | 1.48 | 1.43 | enough cells to score | inactive
Il3ra | SID315467455 | -0.19 | 1.43 | 1.38 | enough cells to score | inactive
Trim67 | SID315481622 | -2.75 | 1.31 | 1.13 | enough cells to score | active
Cpt1a | SID315466099 | -1.29 | 1.31 | 1.2 | enough cells to score | inactive
Cd80 | SID315465875 | -0.49 | 1.33 | 1.38 | enough cells to score | inactive
Fam163b | SID315476827 | 1.29 | 1.78 | 2 | enough cells to score | inactive
Dipk1a | SID315472933 | – | 1.36 | 1.15 | fewer than 50 cells per well; well left out of scoring | inactive
Urod | SID315469952 | -0.38 | 1.5 | 1.41 | enough cells to score | inactive
Mical3 | SID315477454 | -0.89 | 1.58 | 1.41 | enough cells to score | inactive

Not a retest: 4 of the entries above.
Target gene | PubChem SID | p65 translocation robust z-score | nuclear/cytoplasmic p65 ratio, rep 1 | nuclear/cytoplasmic p65 ratio, rep 2 | low cell count flag | activity call
Sspn | SID315467679 | -0.37 | 1.52 | 1.48 | enough cells to score | inactive
Hspd1 | SID315467325 | -0.25 | 1.26 | 1.36 | enough cells to score | inactive
4932435O22Rik | SID315481172 | -0.31 | 1.25 | 1.27 | enough cells to score | inactive
Dlx3 | SID315466338 | -2.12 | 1.2 | 1.18 | enough cells to score | active

Continued:
Target gene | PubChem SID | p65 translocation robust z-score | nuclear/cytoplasmic p65 ratio, rep 1 | nuclear/cytoplasmic p65 ratio, rep 2 | low cell count flag | activity call
P4ha2 | SID315468373 | -1.2 | 1.28 | 1.12 | enough cells to score | inactive
Arid4b | SID315476074 | -0.01 | 1.69 | 1.55 | enough cells to score | inactive
Ngb | SID315472079 | -0.34 | 1.55 | 1.7 | enough cells to score | inactive
Ctsj | SID315470468 | 0.18 | 1.59 | 1.83 | enough cells to score | inactive
Grem2 | SID315470222 | -0.63 | 1.25 | 1.15 | enough cells to score | inactive
Cyb5b | SID315472437 | 0.42 | 1.44 | 1.36 | enough cells to score | inactive
Gtpbp3 | SID315474025 | 0.28 | 1.74 | 1.54 | enough cells to score | inactive
Krcc1 | SID315471841 | – | 1.31 | 1.27 | fewer than 50 cells per well; well left out of scoring | inactive
Htra3 | SID315475585 | -1.77 | 1.21 | 1.28 | enough cells to score | active
Ssty1 | SID315469349 | 0.19 | 1.45 | 1.36 | enough cells to score | inactive
Lctl | SID315479254 | 0.25 | 1.7 | 1.36 | enough cells to score | inactive
Zfp758 | SID315478347 | 0.53 | 1.8 | 1.62 | enough cells to score | inactive
Aasdh | SID315478884 | 0.24 | 1.35 | 1.56 | enough cells to score | inactive
Klrd1 | SID315467672 | -0.23 | 1.48 | 1.32 | enough cells to score | inactive
Cxcr4 | SID315466011 | – | 1.65 | 1.75 | fewer than 50 cells per well; well left out of scoring | inactive
Tmem50a | SID315474337 | 1.83 | 1.34 | 1.47 | enough cells to score | inactive
Mylip | SID315478178 | -0.71 | 1.65 | 1.5 | enough cells to score | inactive
Itpr2 | SID315467538 | 0.7 | 1.57 | 1.6 | enough cells to score | inactive
Khdrbs3 | SID315466569 | 2.6 | 1.31 | 1.78 | enough cells to score | inactive
Neu1 | SID315468134 | -0.21 | 1.41 | 1.32 | enough cells to score | inactive
